The source of these data is US12551173B2, “System and method for single-scan rest-stress cardiac PET” (The General Hospital Corporation, priority 2012, dated 2026).

This data set relates to myocardium. Description: MBF estimated with kinetic modeling in phase II clinical 18F-Flurpiridaz rest and stress PET studies. The conditions noted are these: stress versus rest. It is filed as in vivo, human. The text has this: With respect to ^18F-flurpiridaz patient studies, MBF was estimated with kinetic modeling analysis in a group of subjects in phase II clinical trial of ^18F-Flurpiridaz. […] During the rest study, there was no significant difference in MBF (t-test, α=0.05) between the healthy and ischemic myocardium. […] The MBF measured with kinetic modeling for ^18F-Flurpiridaz are consistent with the previously reported MBF measured with other tracers.

For `CC(C)(C)n1ncc(OCc2ccc(COCCF)cc2)c(Cl)c1=O` [18F-Flurpiridaz], the “MBF increase during pharmacological stress” value (healthy myocardium) is “more than 3 ×”. Besides, the “MBF change during pharmacological stress” value (ischemic regions) is “remained approximately the same”.
